Results deposited as PubChem BioAssay AID686938 (Drosophila RNAi Screening Center, 2013).
The screen tested about 23,000 reagents; this is an unselected part of those with a known target gene and a result. In the full data, 75 (0.33%) were called active. 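Raw plate signals without normalisation; calls rest on plate z-scores that were not deposited; ratio present for only 364 wells.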 A plus sign joins genes that one reagent is predicted to hit. Not stated in the record: the dose of the treatment.

- Screen: 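Fly genes required for calcium entry once internal stores are emptied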 (primary screen)
- Cells: Drosophila S2R+ cells
- Knock-down reagent: long dsRNA against Drosophila genes, about 0.25 µg dsRNA per well, roughly 10,000 cells
- Duration: 5 days of knock-down before the calcium assay
- Treatment: thapsigargin (SERCA pump blocker) to empty calcium stores; entry signal taken 4 min after adding it
- Read-out: 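Per-well fluo-4 fluorescence in two replicates, unnormalised, measured in resting cells and 4 min after store depletion by the SERCA blocker thapsigargin; ratio of the two present in few wells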
- Reading the numbers: calcium entry signal: higher = stronger calcium signal after store depletion; entry to resting ratio: higher = more calcium entry relative to resting level; resting calcium signal: higher = higher resting calcium signal
- Active means: 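Hit if the duplicate-averaged plate z-score for entry over resting signal is under −3; wells with weak total dye signal (Fmax z < −2) or more than 5 off-targets removed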
- Meaning of the calls: active = strongly reduced calcium entry; inactive = no strong reduction

| Gene | DRSC id | calcium entry signal, replicate 1 (fluorescence units) | calcium entry signal, replicate 2 (fluorescence units) | entry to resting ratio | resting calcium signal, replicate 1 (fluorescence units) | resting calcium signal, replicate 2 (fluorescence units) | Outcome |
| --- | --- | --- | --- | --- | --- | --- | --- |
| CG5835 | DRSC15886 | 3.59e7 | 3.77e7 | – | 4.96e7 | 1.70e7 | inactive |
| His-Psi:CR31616 + His-Psi:CR31615 | DRSC03760 | 1.98e7 | 4.01e7 | – | 1.19e7 | 1.79e7 | inactive |
| Sms | DRSC10408 | 2.82e7 | 5.18e7 | – | 1.48e7 | 2.23e7 | inactive |
| CG13838 | DRSC14688 | 5.61e7 | 4.44e7 | – | 2.56e7 | 2.25e7 | inactive |
| Pka-C2 | DRSC16790 | 3.27e7 | 3.66e7 | – | 1.82e7 | 2.05e7 | inactive |
| Pka-C2 | DRSC23310 | 3.21e7 | 3.54e7 | – | 1.67e7 | 1.73e7 | inactive |
| CG40498 | DRSC07786 | 3.69e7 | 3.84e7 | – | 1.64e7 | 2.16e7 | inactive |
| CG33332 | DRSC15504 | 3.29e7 | 4.25e7 | – | 1.52e7 | 6.88e7 | inactive |
| CG11426 | DRSC11658 | 2.62e7 | 5.09e7 | – | 1.36e7 | 2.24e7 | inactive |
| Lcp2 | DRSC07456 | 5.21e7 | 4.40e7 | – | 2.49e7 | 2.03e7 | inactive |
| alpha-Man-Ib | DRSC14418 | 1.22e7 | 2.55e7 | – | 9.38e6 | 1.16e7 | inactive |
| fipi | DRSC00465 | 1.81e7 | 2.44e7 | – | 1.18e7 | 1.44e7 | inactive |
| Cpr50Cb | DRSC06975 | 3.50e7 | 3.91e7 | – | 1.87e7 | 1.81e7 | inactive |
| trr | DRSC18845 | 2.44e7 | 2.79e7 | – | 1.15e7 | 1.33e7 | inactive |
| trr | DRSC23290 | 4.40e7 | 2.33e7 | – | 2.05e7 | 1.09e7 | inactive |

Continued; the last 3 above are carried over.
| Gene | DRSC id | calcium entry signal, replicate 1 (fluorescence units) | calcium entry signal, replicate 2 (fluorescence units) | entry to resting ratio | resting calcium signal, replicate 1 (fluorescence units) | resting calcium signal, replicate 2 (fluorescence units) | Outcome |
| --- | --- | --- | --- | --- | --- | --- | --- |
| Cpr50Cb | DRSC06975 | 3.50e7 | 3.91e7 | – | 1.87e7 | 1.81e7 | inactive |
| trr | DRSC18845 | 2.44e7 | 2.79e7 | – | 1.15e7 | 1.33e7 | inactive |
| trr | DRSC23290 | 4.40e7 | 2.33e7 | – | 2.05e7 | 1.09e7 | inactive |
| CG5793 | DRSC15874 | 2.91e7 | 3.48e7 | – | 7.29e7 | 1.51e7 | inactive |
| CG30088 | DRSC21764 | 3.28e7 | 3.82e7 | – | 1.79e7 | 1.78e7 | inactive |
| Pld | DRSC04854 | 4.20e7 | – | – | 2.05e7 | – | inactive |
| CG32815 | DRSC18177 | 4.65e7 | 5.40e7 | 1.9 | 2.39e7 | 2.17e7 | inactive |
| CG32815 | DRSC18179 | 4.12e7 | 5.30e7 | 1.9 | 2.22e7 | 2.16e7 | inactive |
| Imp | DRSC18857 | 3.73e7 | 3.50e7 | – | 1.71e7 | 1.83e7 | inactive |
| Imp | DRSC18861 | 3.45e7 | 3.45e7 | – | 1.61e7 | 1.70e7 | inactive |
| Imp | DRSC20255 | 4.35e7 | 3.94e7 | – | 2.06e7 | 1.82e7 | inactive |
| Imp | DRSC21907 | 3.38e7 | 6.40e7 | – | 1.60e7 | 3.23e7 | inactive |
